# Record: PubChem BioAssay AID1508588 (Peter MacCallum Cancer Centre, 2020)
# Aim: 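Genome-wide search for knock-downs that heighten vemurafenib action in melanoma cells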 (primary screen)
# Cells: human WM266.4 melanoma cells (BRAF V600 mutant)
# Reagents: siRNA pool against human genes, 40 nM
# Timing: 96 h from transfection to read-out
# Challenge: vemurafenib 300 nM (about IC25), added 48 h after transfection, for 48 h; comparison arm got DMSO vehicle only
# Read-out: 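Cell gain (DAPI nuclei at end minus before drug, mean of two replicates) and medium lactate by absorbance per cell, both as ratio to non-targeting siRNA, also grouped into fold-change classes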
# Direction: cell gain with vemurafenib: higher = more cell gain than with non-targeting siRNA; lactate per cell with vemurafenib: higher = more lactate made per cell
# Call rule: 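a knock-down counts as enhancing when its fold-change classes with vehicle and with vemurafenib, taken together, show a stronger drug effect on cell gain or lactate per cell; exact class pairs not stated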
# Meaning of the calls: active = enhances vemurafenib effect; inactive = no enhancement seen
# Here is one part, drawn at random, of about 18,000 deposited reagents. 790 of all reagents (4.4%) count as active. 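Calls rest on a combination of fold-change classes in drug and vehicle arms, not all shown here.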
Gene,PubChem SID,cell gain with vemurafenib,lactate per cell with vemurafenib,Call
SPRY1 (sprouty RTK signaling antagonist 1),SID134326900,0.31,2.17,inactive
FAM228A (family with sequence similarity 228 member A),SID135625531,0.1,1.55,inactive
ZNF195 (zinc finger protein 195),SID135623763,0.93,1.15,inactive
OR11H1 (olfactory receptor family 11 subfamily H member 1),SID134329889,0.42,1.46,inactive
LRIG1 (leucine rich repeats and immunoglobulin like domains 1),SID152154357,0.83,1.05,inactive
"RAB29 (RAB29, member RAS oncogene family)",SID134315055,0.62,0.76,inactive
DDI2 (DDI proteasomal shuttling factor 2),SID135621670,0.77,0.8,inactive
DDI2 (DDI proteasomal shuttling factor 2),SID152148202,0.54,0.85,inactive
DDX51 (DEAD-box helicase 51),SID152151408,0.63,0.53,inactive
KIF13B (kinesin family member 13B),SID56478939,0.86,0.58,inactive
MTMR12 (myotubularin related protein 12),SID152149104,0.6,0.92,inactive
SMAD2 (SMAD family member 2),SID152156776,0.86,0.84,inactive
TAAR1 (trace amine associated receptor 1),SID152147864,0.74,0.82,inactive
RBL2 (RB transcriptional corepressor like 2),SID152154789,0.95,0.51,inactive
ZNF350 (zinc finger protein 350),SID135623400,0.68,1.13,inactive
AASS (aminoadipate-semialdehyde synthase),SID134314012,0.87,0.2,inactive
TTBK1 (tau tubulin kinase 1),SID135620866,0.88,0.68,inactive
GPI (glucose-6-phosphate isomerase),SID134310663,0.51,0.24,inactive
GALNT14 (polypeptide N-acetylgalactosaminyltransferase 14),SID152149607,0.9,1.36,inactive
FMNL2 (formin like 2),SID152149570,1.11,0.41,inactive
MYO1E (myosin IE),SID152148118,0.58,0.64,inactive
PLA2G2A (phospholipase A2 group IIA),SID135621857,0.74,1.16,inactive
SRRM2 (serine/arginine repetitive matrix 2),SID152149244,0.59,0.52,active
MYBPC3 (myosin binding protein C3),SID152149987,0.73,1.26,inactive
SLC25A37,SID152151238,0.39,0.73,inactive
FAM177B (family with sequence similarity 177 member B),SID135625091,0.21,1.36,inactive
ANKRD54 (ankyrin repeat domain 54),SID134320570,0.64,1.31,inactive
OR1E1 (olfactory receptor family 1 subfamily E member 1),SID152149800,0.56,0.74,inactive
HCFC1R1 (host cell factor C1 regulator 1),SID152148864,0.47,0.88,inactive
ZKSCAN2 (zinc finger with KRAB and SCAN domains 2),SID152150059,0.27,1.7,inactive
SCNN1B (sodium channel epithelial 1 subunit beta),SID152147591,0.67,1.8,inactive
PGAP4 (post-GPI attachment to proteins GalNAc transferase 4),SID135622829,0.35,1.48,inactive
NSDHL (NAD(P) dependent 3-beta-hydroxysteroid dehydrogenase NSDHL),SID134313320,0.56,0.4,inactive
CDK10 (cyclin dependent kinase 10),SID152152801,0.57,1.2,inactive
RERE (arginine-glutamic acid dipeptide repeats),SID135621556,0.65,1.75,inactive
ITGAL (integrin subunit alpha L),SID134312940,1.06,0.51,inactive
COPS4 (COP9 signalosome subunit 4),SID134324655,0.65,0.81,inactive
NR2C2AP (nuclear receptor 2C2 associated protein),SID152148127,0.58,0.67,inactive
USP39 (ubiquitin specific peptidase 39),SID152152055,0.17,0.77,inactive
HMGB1P1 (high mobility group box 1 pseudogene 1),SID135625191,0.45,1.08,inactive
ZNF423 (zinc finger protein 423),SID134317157,0.54,0.98,inactive
KIF3A (kinesin family member 3A),SID152147606,0.55,0.82,inactive
SHOX (SHOX homeobox),SID152152257,1.17,0.94,inactive
SPANXA1,SID134317780,0.04,1.44,inactive
UBQLN3 (ubiquilin 3),SID134317624,0.72,0.57,inactive
COPG1 (coat protein complex I subunit gamma 1),SID134322947,-0.04,0.77,inactive
PPIG (peptidylprolyl isomerase G),SID134313173,0.15,2.67,inactive
SNRPD1 (small nuclear ribonucleoprotein D1 polypeptide),SID134316629,-0.03,0.84,inactive
"PCDHGA11 (protocadherin gamma subfamily A, 11)",SID134317524,0.65,0.76,inactive
LTA4H (leukotriene A4 hydrolase),SID152156543,0.96,0.84,inactive
MTNAP1 (mitochondrial nucleoid associated protein 1),SID135623245,0.54,1.69,inactive
BMP7 (bone morphogenetic protein 7),SID134315919,0.53,0.7,inactive
POU1F1 (POU class 1 homeobox 1),SID134316810,0.56,1.73,inactive
FCN1 (ficolin 1),SID152149498,0.21,1.73,inactive
CSNK1G3 (casein kinase 1 gamma 3),SID152152817,0.88,0.64,inactive
FABP1 (fatty acid binding protein 1),SID134313536,0.61,1.29,inactive
BBLN (bublin coiled coil protein),SID152155802,0.47,0.87,inactive
SRP54 (signal recognition particle 54),SID134310755,0.45,0.5,inactive
HOXA9 (homeobox A9),SID152154243,0.69,0.88,inactive
NFYB (nuclear transcription factor Y subunit beta),SID134314658,0.76,1.46,inactive
HSPBP1 (HSPA (Hsp70) binding protein 1),SID152152356,0.74,0.72,inactive
"IARS2 (isoleucyl-tRNA synthetase 2, mitochondrial)",SID134324110,0.71,1.02,inactive
LRRFIP1 (LRR binding FLII interacting protein 1),SID152147621,0.47,0.72,inactive
"RAB21 (RAB21, member RAS oncogene family)",SID152148881,0.61,0.77,inactive
DHX8 (DEAH-box helicase 8),SID135621951,0.43,0.82,inactive
C1orf162 (chromosome 1 open reading frame 162),SID152149452,0.57,1.02,inactive
ZUP1 (zinc finger containing ubiquitin peptidase 1),SID134319911,0.87,0.3,inactive
CAMK2B (calcium/calmodulin dependent protein kinase II beta),SID135620913,0.68,1.52,inactive
ARMC9 (armadillo repeat containing 9),SID135623444,0.81,1.25,inactive
C16orf78 (chromosome 16 open reading frame 78),SID134320247,0.68,0.82,inactive
INSYN1 (inhibitory synaptic factor 1),SID152149193,0.5,1.39,inactive
CCL3L1 (C-C motif chemokine ligand 3 like 1),SID135621454,0.41,0.29,inactive
PXYLP1 (2-phosphoxylose phosphatase 1),SID134313424,0.69,1.02,inactive
SRSF7 (serine and arginine rich splicing factor 7),SID152148819,0.34,0.96,inactive
ST20-AS1 (ST20 antisense RNA 1),SID134321979,0.59,1.52,inactive
KRT72 (keratin 72),SID134319315,0.69,0.53,inactive
DEFB112 (defensin beta 112),SID135625242,0.54,2.24,inactive
NOL4L (nucleolar protein 4 like),SID134319288,0.29,0.94,inactive
GALNT12 (polypeptide N-acetylgalactosaminyltransferase 12),SID152155290,0.84,0.56,inactive
CRIP1 (cysteine rich protein 1),SID134320213,0.36,0.5,inactive
STAU1 (staufen double-stranded RNA binding protein 1),SID152154991,0.41,0.88,inactive
CXCL1 (C-X-C motif chemokine ligand 1),SID134310144,0.68,1.06,inactive
THUMPD3 (THUMP domain 3 tRNA guanosine methyltransferase),SID134318157,0.45,0.06,active
EMC6 (ER membrane protein complex subunit 6),SID152153129,0.44,1.33,inactive
